Measured values from PMC12022009.
Results are given in words; binding and its absence hold for the method and conditions named. In cells and extracts the contact can be indirect. Some results given as binding are weak or reduced against the parent protein; the word gives no strength.

Sequences of proteins named here, by UniProt entry; tags and fusion partners are left off.
UniProt Q15365: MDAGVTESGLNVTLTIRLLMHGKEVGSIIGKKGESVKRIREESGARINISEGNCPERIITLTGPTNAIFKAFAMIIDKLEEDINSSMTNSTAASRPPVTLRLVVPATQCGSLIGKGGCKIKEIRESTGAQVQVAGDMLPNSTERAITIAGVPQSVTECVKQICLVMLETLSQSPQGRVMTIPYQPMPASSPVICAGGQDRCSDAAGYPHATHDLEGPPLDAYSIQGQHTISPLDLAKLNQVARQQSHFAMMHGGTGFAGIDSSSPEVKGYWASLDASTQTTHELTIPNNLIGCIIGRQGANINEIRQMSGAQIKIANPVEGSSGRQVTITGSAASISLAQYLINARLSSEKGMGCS

Tests used:
[1] = biological target: T1, BCAT2 (human (endogenous in PCa cells)) (UniProt O15382); experiment: co-IP; Co-IP kit (Epizyme); lysate incubated with antibody and added to protein A/G agarose resin for 1 h at room temperature; IgG as negative control, input as positive control; Western blot
T1 sequence: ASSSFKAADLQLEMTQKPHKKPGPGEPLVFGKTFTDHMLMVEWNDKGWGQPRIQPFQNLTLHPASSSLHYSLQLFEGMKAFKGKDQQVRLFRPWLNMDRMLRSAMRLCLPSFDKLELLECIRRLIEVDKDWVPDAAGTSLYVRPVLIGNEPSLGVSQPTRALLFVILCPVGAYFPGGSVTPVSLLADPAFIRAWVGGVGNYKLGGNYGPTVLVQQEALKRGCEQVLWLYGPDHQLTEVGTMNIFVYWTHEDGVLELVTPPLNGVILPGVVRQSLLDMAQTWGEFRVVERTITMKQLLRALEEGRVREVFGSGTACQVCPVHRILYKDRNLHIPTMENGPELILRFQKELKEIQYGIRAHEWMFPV

BCAT2-WT = biological target: T2, BCAT2-WT (UniProt O15382); experiment: co-IP; cells transfected with BCAT2-WT or point-mutation plasmids; Co-IP and Western blot
T2 sequence: T1 sequence

- binding [1]: binds
- binding (BCAT2-WT): binds
Substance: PCBP1 (from UniProt Q15365 1-356)
